Assay results from US6987132B1, “Enediyne compounds and methods related thereto” (Advanced Research and Technology Institute, Inc., priority 2000, dated 2006).
Some of these results come from one statement about several compounds together.

Experiment: Thermal cyclization temperature and stability of free ligands in solution
Conditions: free ligand in solution

With `NCC#CC=CC#CCN` [Compound 12, 1,8-diaminooct-4-ene-2,6-diyne] the “stable in solution (time)” value was “over 24 hours”.
